Source: patent US10085940B2, “Liposomes co-encapsulating a bisphosphonate and an amphipathic agent” (YISSUM RESEARCH DEVELOPMENT COMPANY OF THE HEBREW …, priority 2011, dated 2018)
pIC50: −log10 of the molar value.

Columns and labels:
[1] = system: N87 human gastric carcinoma cells; assay: In vitro cytotoxicity, 72 hr continuous exposure, methylene blue staining; type: cell-based; settings: N-87
Method: (§1) The cytotoxicity of L-ALD/DOX relative to DOXIL and other control samples (free DOX, free ALD and L-ALD) was determined in three human cell lines, KB human cervical carcinoma, N87 human gastric carcinoma cells and IGROV-1 ovarian carcinoma.
(§2) Cytotoxicity was assayed using varying concentrations of ALD (0.1-200 μM) under standard 72 hr, continuous exposure, in 96-multiwell assays. Growth rate was assessed colorimetrically based on methylene blue staining and data was obtained with an automatic plate reader and IC50 values were determined

[2] = system: IGROV-1 ovarian carcinoma; assay: as above; type: cell-based; settings: Homo sapiens
Method: as §1, §2
Other controls included Free ALD and DOX.
Cytotoxicity was assayed as described above in Example 1.

SMILES: NCCCC(O)(P(=O)(O)O)P(=O)(O)O [Free ALD, 4-amino-1-hydroxybutylidene-1,1-bisphosphonic acid]
- pIC50 [1]: < 4.00
- pIC50 [2]: < 4.70
